Results are given in words; binding and its absence hold for the method and conditions named. In cells and extracts the contact can be indirect. Some entries that bind do so weakly or less than the wild type. Where a sequence is shown, tags or fusion partners need not be part of it.
Assays:
Experiment in all cases: co-IP; WNT5A-V5 and HA-tagged APOJ or APOE overexpressed in HEK293T cells; lysis buffer 50 mM Tris pH 7.6, 200 mM NaCl, 1 mM EDTA, 0.5% NP40; immunoprecipitation with anti-V5 or anti-HA antibody or control IgG on DynaBeads, 4 °C; western blot
[1] = molecular target: T1, mouse V5-tagged WNT5A (mouse) (UniProt P22725)
T1 sequence: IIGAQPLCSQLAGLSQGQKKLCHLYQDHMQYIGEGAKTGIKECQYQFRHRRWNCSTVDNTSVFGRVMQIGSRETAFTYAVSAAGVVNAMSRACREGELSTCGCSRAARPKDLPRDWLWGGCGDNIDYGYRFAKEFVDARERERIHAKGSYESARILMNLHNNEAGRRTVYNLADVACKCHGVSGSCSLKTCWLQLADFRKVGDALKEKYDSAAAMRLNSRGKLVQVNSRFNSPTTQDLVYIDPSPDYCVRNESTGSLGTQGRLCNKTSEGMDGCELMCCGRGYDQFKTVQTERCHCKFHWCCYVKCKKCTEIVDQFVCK

Protein sequences, listed by entry. Tags and fused reporters are not part of them. Residues count along the entry.
UniProt Q06890, residues 22-448: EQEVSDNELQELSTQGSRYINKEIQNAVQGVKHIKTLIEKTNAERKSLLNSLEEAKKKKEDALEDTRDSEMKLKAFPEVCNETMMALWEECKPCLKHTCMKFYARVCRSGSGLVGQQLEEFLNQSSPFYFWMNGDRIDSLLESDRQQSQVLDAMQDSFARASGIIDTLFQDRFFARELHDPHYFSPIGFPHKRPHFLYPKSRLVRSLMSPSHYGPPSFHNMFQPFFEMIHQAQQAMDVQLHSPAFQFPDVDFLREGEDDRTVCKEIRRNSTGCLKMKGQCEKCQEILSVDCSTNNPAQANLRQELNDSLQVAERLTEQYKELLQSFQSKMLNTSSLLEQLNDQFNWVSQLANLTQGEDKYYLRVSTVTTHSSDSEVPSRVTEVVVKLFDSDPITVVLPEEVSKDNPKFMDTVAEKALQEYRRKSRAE

[2] = molecular target: T2, HA-tagged APOE (Apolipoprotein E) (UniProt P08226)
T2 sequence: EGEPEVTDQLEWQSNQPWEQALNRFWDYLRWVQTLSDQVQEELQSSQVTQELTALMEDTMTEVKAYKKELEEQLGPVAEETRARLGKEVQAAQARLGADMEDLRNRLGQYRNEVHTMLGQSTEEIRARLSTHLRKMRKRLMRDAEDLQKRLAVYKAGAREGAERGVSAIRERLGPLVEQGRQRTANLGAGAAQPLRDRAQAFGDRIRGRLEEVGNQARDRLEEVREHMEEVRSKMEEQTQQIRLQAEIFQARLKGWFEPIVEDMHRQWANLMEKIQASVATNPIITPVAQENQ

[3] = molecular target: HA-tagged APOJ (Apolipoprotein J, also known as Clusterin) (UniProt Q06890)

In the case of “HA-tagged APOJ (Apolipoprotein J, also known as Clusterin) (from UniProt Q06890 22-448)”, the binding [1] is reported as “binds”.

B1: HA-tagged APOE (Apolipoprotein E) (protein, UniProt P08226 19-311)
chain: T2 sequence
For B1, the binding [1] was “binds”.

B2: recombinant WNT5A (ligand, UniProt P22725 62-380, looked up)
chain: T1 sequence
notes: recombinant WNT5A, R&D Systems; 'P22725' is printed where a catalogue number would stand; elsewhere the catalogue number 645-WN-010 is printed; WNT5A'; also called rcWNT5A; rcWnt5a; source: bought: R&D Systems
B2 was tested, and the binding [2] was “binds” and the binding [3] was “binds”.

Source: paper PMC6445127, “WNT5A is transported via lipoprotein particles in the cerebrospinal fluid to regulate hindbrain morphogenesis” (Nature Communications, 2019)
